PubChem BioAssay AID1259424 – University of Nebraska Medical Center | 2018
Assay: 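Rank knockdowns across the genome by resemblance to the KSR1 depletion profile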 (primary screen). Cells: human HCT116 colon cancer cells. Knock-down reagent: siRNA pool against human genes, 50 nM. Read-out: 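Six signature mRNAs by branched-DNA multiplex assay, scaled to two housekeeping genes and non-targeting median, log2; matched to mean KSR1 knockdown profile by Pearson correlation and euclidean distance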. Direction: mean correlation with KSR1 profile and KSR1 correlation: higher = expression change more like KSR1 knockdown; mean distance from KSR1 profile: higher = expression change less like KSR1 knockdown.
In all, the deposit lists about 14,000 reagents; shown is an unselected part. 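Higher correlation or smaller distance means closer resemblance to KSR1 loss; control wells, including KSR1 knockdowns, recur on many plates.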 A reagent listed more than once was tested more than once; the source does not tell the runs apart. Not all columns of the deposit are shown. Not stated in the record: the time to read-out.

gene symbol | mean correlation with KSR1 profile | mean distance from KSR1 profile | KSR1 correlation, replicate 1 | KSR1 correlation, replicate 2
MELTF | -0.28 | 2.65 | -0.307 | -0.454
LAMA3 | -0.604 | 1.76 | -0.439 | -0.8
PFKFB3 | 0.416 | 1.61 | 0.719 | 0.371
TEX15 | -0.502 | 2.29 | -0.569 | -0.521
DIP2A | 0.716 | 2.83 | 0.718 | 0.612
LYRM4 | -0.215 | 1.99 | -0.108 | -0.266
ADAMTS3 | -0.483 | 2.32 | -0.415 | -0.742
PITPNB | 0.376 | 0.711 | 0.652 | 0.176
PKD2L1 | -0.278 | 2.85 | -0.176 | -0.365
TNPO2 | 0.466 | 4.12 | 0.505 | 0.358
TNPO2 | 0.238 | 2.82 | -0.041 | -0.0814
OR2L2 | -0.295 | 2.44 | -0.146 | -0.268
UBE2C | 0.129 | 2.76 | 0.295 | -0.0603
WWP1 | 0.418 | 1.13 | 0.157 | 0.327
ATP12A | 0.661 | 1.38 | 0.352 | 0.396
STX18 | -0.154 | 2.43 | -0.235 | -0.226
GFM2 | 0.768 | 1.17 | 0.568 | 0.645
HS6ST1 | -0.0348 | 1.04 | 0.225 | 0.286
NDC1 | -0.0482 | 1.19 | -0.509 | 0.194
PPFIA1 | -0.141 | 4.53 | -0.191 | -0.107

An excerpt taken from the entries so far, as a working copy:
gene symbol | mean correlation with KSR1 profile | mean distance from KSR1 profile | KSR1 correlation, replicate 1 | KSR1 correlation, replicate 2
WWP1 | 0.418 | 1.13 | 0.157 | 0.327
ATP12A | 0.661 | 1.38 | 0.352 | 0.396
